Measurements: the supplement of paper PMC10849652
This is one part of the list.

Sequences of proteins named here, by UniProt entry; tags and fusion partners are left off. A change or cut given only in a name is not applied to a line headed by its entry.
UniProt P23297: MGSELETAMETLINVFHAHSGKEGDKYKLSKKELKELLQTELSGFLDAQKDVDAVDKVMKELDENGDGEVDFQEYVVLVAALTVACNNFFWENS

Compound: C1=CC=C(C=C1)[C@H](COC2=CC3=C(C=C2)NC(=O)N3)NC(=O)C4=CC=CN(C4=O)CC5=CC(=C(C=C5)F)F
Test: log2 fold change, soluble protein after heating vs DMSO (PISA); higher = thermal stabilisation; K562 cells, 10 uM, 30 min; active = over 0.2 and 3.5 SD of the protein, either way, in both replicates (recomputed)
Procedure, shortened: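 Soluble protein was defined as the supernatant after 21,000xg for 90 min. It came from K562 cells at 2×10^6 cells/mL given 10 μM compound for 30 min, heated in aliquots for 3 min across 48°C-58°C, pooled, and extracted in PBS with 0.5% NP-40 at 4°C, and was quantified by TMTpro 16plex LC-MS/MS with equalised channel sums. Thermal stability against control samples, from duplicates, is reported as log2 fold change.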

With S100A1 (UniProt P23297) the log2 fold change was inactive: -0.04.
